Results are given in words; binding and its absence hold for the method and conditions named. In cells and extracts the contact can be indirect. Some results given as binding are weak or reduced against the parent protein; the word gives no strength. Where a sequence is shown, tags or fusion partners need not be part of it. One block for each binder: values may come before it.
Experiments:
[1] = target: T1, FLAG-hANO5-BioID2 (human) (UniProt Q75V66); test: co-IP; C2C12 myoblasts stably expressing FLAG-hANO5-BioID2, transiently transfected with BVES-myc; IP with FLAG antibody; RIPA lysis buffer, 4 °C
T1 sequence: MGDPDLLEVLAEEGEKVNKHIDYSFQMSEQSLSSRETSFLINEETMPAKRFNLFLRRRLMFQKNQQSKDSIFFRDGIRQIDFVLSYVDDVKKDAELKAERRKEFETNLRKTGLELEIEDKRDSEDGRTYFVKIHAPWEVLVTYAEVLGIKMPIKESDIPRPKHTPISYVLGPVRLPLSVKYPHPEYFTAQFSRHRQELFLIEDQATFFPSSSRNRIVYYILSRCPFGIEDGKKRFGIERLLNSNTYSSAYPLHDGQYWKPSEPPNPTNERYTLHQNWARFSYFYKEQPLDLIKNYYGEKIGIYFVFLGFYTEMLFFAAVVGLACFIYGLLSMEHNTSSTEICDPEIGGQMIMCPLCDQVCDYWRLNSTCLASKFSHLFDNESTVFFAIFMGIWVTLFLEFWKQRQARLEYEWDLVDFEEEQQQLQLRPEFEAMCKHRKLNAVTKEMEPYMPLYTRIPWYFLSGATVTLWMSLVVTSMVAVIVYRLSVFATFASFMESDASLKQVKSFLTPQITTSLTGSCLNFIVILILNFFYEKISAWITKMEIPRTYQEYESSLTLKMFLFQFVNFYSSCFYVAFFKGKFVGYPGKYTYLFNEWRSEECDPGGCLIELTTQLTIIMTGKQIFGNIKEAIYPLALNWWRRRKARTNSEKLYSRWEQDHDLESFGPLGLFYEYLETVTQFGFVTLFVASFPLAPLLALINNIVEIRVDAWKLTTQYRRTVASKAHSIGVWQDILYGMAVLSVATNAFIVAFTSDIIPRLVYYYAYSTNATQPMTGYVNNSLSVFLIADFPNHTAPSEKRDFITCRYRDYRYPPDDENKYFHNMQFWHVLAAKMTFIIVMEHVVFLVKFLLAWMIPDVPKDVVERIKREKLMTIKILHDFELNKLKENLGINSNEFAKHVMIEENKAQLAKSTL

[2] = target: T2, BVES-myc (Blood Vessel Epicardial Substance) (human) (UniProt Q8NE79); test: co-IP; mapping with truncation or deletion constructs of ANO5 and BVES; BVES-myc as bait for the ANO5 fragments; transfected cells (cell line not stated); RIPA lysis buffer, 4 °C
T2 sequence: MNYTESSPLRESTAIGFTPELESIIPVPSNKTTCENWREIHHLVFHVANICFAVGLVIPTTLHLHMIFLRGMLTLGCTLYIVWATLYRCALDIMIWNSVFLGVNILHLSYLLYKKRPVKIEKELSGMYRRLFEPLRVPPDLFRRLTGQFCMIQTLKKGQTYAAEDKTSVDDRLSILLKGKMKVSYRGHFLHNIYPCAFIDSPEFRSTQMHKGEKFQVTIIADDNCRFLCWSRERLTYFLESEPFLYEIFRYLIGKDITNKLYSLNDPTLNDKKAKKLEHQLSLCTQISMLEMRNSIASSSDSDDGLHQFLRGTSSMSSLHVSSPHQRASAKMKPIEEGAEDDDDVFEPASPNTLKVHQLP

[3] = target: T2, BVES-myc (Blood Vessel Epicardial Substance) (human); test: co-IP; COS-1 cells co-expressing ANO5 and myc-tagged BVES or POPDC2; IP with anti-myc antibody and protein A/G agarose; RIPA lysis buffer (25 mM Tris-HCl pH 7.4, 150 mM NaCl, 1% Triton X-100), 4 °C
[4] = target: T3, POPDC2-myc (human) (UniProt Q9HBU9); test: as above
T3 sequence: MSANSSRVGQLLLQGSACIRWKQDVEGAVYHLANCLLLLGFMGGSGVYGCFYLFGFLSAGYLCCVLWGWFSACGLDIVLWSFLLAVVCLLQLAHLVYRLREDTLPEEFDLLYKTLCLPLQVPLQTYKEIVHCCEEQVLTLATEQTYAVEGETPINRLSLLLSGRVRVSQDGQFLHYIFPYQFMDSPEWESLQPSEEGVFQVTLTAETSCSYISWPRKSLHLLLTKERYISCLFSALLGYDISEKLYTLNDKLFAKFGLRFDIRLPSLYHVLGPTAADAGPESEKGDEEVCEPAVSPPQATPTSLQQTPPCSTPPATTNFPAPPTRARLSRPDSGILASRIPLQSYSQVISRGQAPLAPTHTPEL

binding [1]: binds
B1: BVES-myc (Blood Vessel Epicardial Substance) (protein, UniProt Q8NE79 1-360)
chain: T2 sequence

binding [2]: binds
B2: ANO5, first 121 amino acids (domain or fragment, UniProt Q75V66 1-121)
chain: MGDPDLLEVLAEEGEKVNKHIDYSFQMSEQSLSSRETSFLINEETMPAKRFNLFLRRRLMFQKNQQSKDSIFFRDGIRQIDFVLSYVDDVKKDAELKAERRKEFETNLRKTGLELEIEDKR

binding [2]: binds
binding [3]: binds
binding [4]: binds
B3: ANO5 (Anoctamin 5), full-length (protein, UniProt Q75V66 1-913)
chain: T1 sequence
